## Primary screen of a compound library

By UniProt entry, the sequences of proteins in these tests, tags left out.
UniProt E9BF75, entry or part of it: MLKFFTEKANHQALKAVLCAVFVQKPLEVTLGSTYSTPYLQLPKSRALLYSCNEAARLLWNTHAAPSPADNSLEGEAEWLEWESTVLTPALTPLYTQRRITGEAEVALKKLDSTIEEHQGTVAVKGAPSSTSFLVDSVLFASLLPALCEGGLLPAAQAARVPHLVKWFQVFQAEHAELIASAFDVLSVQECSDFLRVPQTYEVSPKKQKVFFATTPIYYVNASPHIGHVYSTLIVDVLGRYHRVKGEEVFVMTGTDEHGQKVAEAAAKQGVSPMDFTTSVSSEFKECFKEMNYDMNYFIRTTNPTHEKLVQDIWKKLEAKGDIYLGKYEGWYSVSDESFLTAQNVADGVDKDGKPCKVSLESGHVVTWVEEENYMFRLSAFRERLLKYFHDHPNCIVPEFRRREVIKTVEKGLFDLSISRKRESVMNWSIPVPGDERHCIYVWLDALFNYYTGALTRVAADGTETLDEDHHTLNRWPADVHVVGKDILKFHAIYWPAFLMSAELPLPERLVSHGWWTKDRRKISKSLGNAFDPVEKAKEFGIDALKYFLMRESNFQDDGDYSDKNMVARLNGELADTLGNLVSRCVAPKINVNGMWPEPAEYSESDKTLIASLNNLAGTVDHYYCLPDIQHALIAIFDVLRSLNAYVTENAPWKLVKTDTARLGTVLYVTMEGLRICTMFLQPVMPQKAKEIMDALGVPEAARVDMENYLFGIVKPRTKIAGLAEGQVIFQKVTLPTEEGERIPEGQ

Mtb heat-shock: 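Assay on Mycobacterium tuberculosis, filed only as a heat shock assay from Cornell; the read-out is not stated. The concentration is filed as 10 mM, unlikely as a test dose, so the dose is not known. Higher reads as stronger inhibition (inferred: compounds with an IC50 in retests scored well above the rest). Size under these conditions: about 69,000 compounds, about 930 of them at 50% or above in at least one test.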
LdMetRS: 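Methionyl-tRNA synthetase (putative), Leishmania donovani (UniProt E9BF75). Primary screen of methionyl-tRNA synthetase; the read-out is not stated. The test concentration is not given. Values are per cent inhibition. About 68,000 compounds were tested under these conditions; 0.035% (about 24) showed 50% or more at least once.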

Results are percentages, as filed.
The controls that fix the scale are not given in the record; negative values are as filed.
This is an unselected part of the compounds tested.
A dash means the value is not listed here; it may have been measured.

Compound,Mtb heat-shock,LdMetRS
CNC(=O)NCC(CO)Cc1cccc(OC(F)(F)F)c1 (stereo not shown),-14.61,9.677
COc1cc(Oc2ncccc2C(F)(F)F)ccc1CN1CCCC1,53,7.035
COc1c(CNC2(c3noc(C)n3)CCC2)c(C)nn1C.Cl,-7.275,-
Cc1ncc(COc2ccc(N(C)S(C)(=O)=O)cc2)s1,-26.67,10.53
[H][C@@]12NCCCC[C@]1([H])N(C(=O)c1ccc(OC)cc1)C[C@H]2c1ccccc1,-3.976,-
Cl.O=C(Nc1cccc(F)c1)C1=NOC2(CCNCC2)C1,-8.859,-
Cc1ccn(-c2ccc(NCc3ccccc3F)nn2)n1,-2.829,9.358
CN1CCN(c2ccc(F)cc2C(N)=O)CC1,4.445,6.233
NC(=O)c1cnn2c1NCC(CNCC1(c3ccccc3)CCC1)C2 (stereo not shown),24.5,14.71
CCC(=O)N(CC(N)=O)Cc1cccc(Oc2ccccc2)c1,-13.57,8.078
Fc1ccc(CNCCn2cccn2)cc1F,-1.295,13.32
c1cncc(N2CCCn3nnc(COCC4CC4)c3C2)c1,-,4.396
O=C(c1ccncc1)N1C[C@@H]2CC[C@H](C1)N(C(=O)C1CCCC1)C2,-,1.818
CCOc1cc(CN(C)CC(=O)O)ccc1OC(F)F,-,3.542
COc1ccc(CN2CCC3(CC(=O)N(c4cncnc4)C3)C2)cc1 (stereo not shown),-,9.764
CC(C)Oc1ncnc2c1CCN(Cc1cccs1)CC2,17.98,12.13
O=C(Nc1cccc(CN2CCOC2=O)c1)N1CCCC1,4.302,15.01
Cc1noc(NC(=O)c2ccc(Br)o2)n1,-6.271,17.71
Cc1cc(-c2nc(C3(NC(=O)OC(C)(C)C)CCC3)no2)on1,-3.243,19.06
Cn1cc(C[C@H]2[C@H](N3CCOCC3)CCN2C(=O)c2ccco2)cn1.O=C(O)C(F)(F)F,6.591,-
O=C(CSc1ncccn1)N1C[C@H]2CC[C@@H]1CN(Cc1ccncc1)C2,-,12.32
CNS(=O)(=O)c1csc(C(=O)N(C)Cc2sccc2C)c1,15.48,11.08
COCc1nc(N2CCC(CCO)CC2)c2cnn(C)c2n1,2.594,20.83
O=C(Nc1nccs1)NC1CCOc2ccccc21 (stereo not shown),6.519,7.092
CS(=O)(=O)NCCN1CCCC1c1ccc(Cl)cc1 (stereo not shown),-7.436,12.68
COc1ncccc1C(=O)NCC(C)Oc1cccnc1 (stereo not shown),0.1213,17.03
Cc1cc(CN2CCC(c3nccn3C(C)C)CC2)ccc1F,-7.614,11.72
CN(C)CCOCC1CN(CC2CCOCC2)Cc2nnn(C)c21.O=C(O)C(F)(F)F.O=C(O)C(F)(F)F (stereo not shown),-17.83,-
O=C(Cc1ccc2c(c1)OCCO2)N1CCCC(n2cncn2)C1 (stereo not shown),24.72,5.842
COc1c(CNC2CCOc3ccccc32)c(C)nn1C (stereo not shown),9.558,7.116
O=C1CCC2(CCCN(Cc3ccccc3F)C2)N1CC1CC1 (stereo not shown),-,10.56
Cc1ccsc1C(=O)N1Cc2ccccc2C2(CCN(C)CC2)C1,4.515,10.73
Cc1ccc(CN2CCOC3(CCCN(c4cccc(F)c4)C3)C2)o1.O=C(O)C(F)(F)F.O=C(O)C(F)(F)F (stereo not shown),12.26,-

3 of the entries, repeated:

* O=C(CSc1ncccn1)N1C[C@H]2CC[C@@H]1CN(Cc1ccncc1)C2 : LdMetRS: 12.32%
* Cc1cc(CN2CCC(c3nccn3C(C)C)CC2)ccc1F : Mtb heat-shock: -7.614%; LdMetRS: 11.72%
* Cc1cc(-c2nc(C3(NC(=O)OC(C)(C)C)CCC3)no2)on1 : Mtb heat-shock: -3.243%; LdMetRS: 19.06%

The values are deposited in ChEMBL (CHEMBL3988442, “University of Dundee, Small-Polar-MMV Screening Library” (2021)).